Publication PMC8980073
Positions count from the first letter of the chain named. These are yes or no findings as the source states them, for the method shown. For some assays here: Binding calls can cover weak binding; strength is not graded here. For some assays here: In cells and extracts the contact can be indirect. For some assays here: Tags and fused reporters may be left off the sequences shown. Values belong to the substance of their own block, whether it stands above or below them.

Protein sequences, listed by entry. Tags and fused reporters are not part of them. Lines headed by an entry give the natural chain unless they say otherwise; changes in a name come on top.
UniProt P36411: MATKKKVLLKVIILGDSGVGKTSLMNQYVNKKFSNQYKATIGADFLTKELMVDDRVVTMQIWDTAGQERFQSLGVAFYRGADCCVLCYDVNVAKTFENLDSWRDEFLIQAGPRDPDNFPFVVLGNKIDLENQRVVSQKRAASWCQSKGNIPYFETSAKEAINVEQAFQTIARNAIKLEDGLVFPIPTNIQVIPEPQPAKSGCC
UniProt Q1ZXL0: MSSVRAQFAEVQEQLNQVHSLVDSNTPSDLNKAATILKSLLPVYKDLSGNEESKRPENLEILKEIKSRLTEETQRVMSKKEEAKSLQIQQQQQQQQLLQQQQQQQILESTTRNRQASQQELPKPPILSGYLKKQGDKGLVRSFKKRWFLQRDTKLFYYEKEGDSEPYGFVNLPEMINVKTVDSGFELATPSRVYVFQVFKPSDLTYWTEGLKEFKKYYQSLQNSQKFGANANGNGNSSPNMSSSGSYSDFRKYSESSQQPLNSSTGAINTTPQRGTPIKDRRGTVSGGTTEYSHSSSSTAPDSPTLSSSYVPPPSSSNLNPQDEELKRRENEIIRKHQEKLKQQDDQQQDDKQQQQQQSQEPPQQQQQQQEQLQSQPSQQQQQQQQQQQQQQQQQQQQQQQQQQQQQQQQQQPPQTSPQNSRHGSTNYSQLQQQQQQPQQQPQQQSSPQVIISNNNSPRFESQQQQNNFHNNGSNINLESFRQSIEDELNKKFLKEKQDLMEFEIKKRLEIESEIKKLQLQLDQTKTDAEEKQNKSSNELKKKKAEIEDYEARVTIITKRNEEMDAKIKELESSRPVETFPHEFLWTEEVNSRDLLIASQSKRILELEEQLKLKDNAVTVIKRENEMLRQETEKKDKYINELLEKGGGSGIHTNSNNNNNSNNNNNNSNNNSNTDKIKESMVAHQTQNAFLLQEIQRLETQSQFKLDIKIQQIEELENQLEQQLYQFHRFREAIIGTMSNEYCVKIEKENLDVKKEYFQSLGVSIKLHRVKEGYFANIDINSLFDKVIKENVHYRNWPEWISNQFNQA

Columns and labels:
[1] = biological target: T1, Rab5A^Q68L, constitutively active form, yeast two-hybrid bait (Dictyostelium discoideum) (UniProt Q86JP3); test: two-hybrid; Matchmaker GAL4 Two-Hybrid System 3, S. cerevisiae AH109; PripA, PripA-ΔPH or TbcrA-TBC as prey on the Gal4 activation domain (pGADT7), Rab GTPases on the Gal4 DNA binding domain (pGBKT7)
T1 sequence: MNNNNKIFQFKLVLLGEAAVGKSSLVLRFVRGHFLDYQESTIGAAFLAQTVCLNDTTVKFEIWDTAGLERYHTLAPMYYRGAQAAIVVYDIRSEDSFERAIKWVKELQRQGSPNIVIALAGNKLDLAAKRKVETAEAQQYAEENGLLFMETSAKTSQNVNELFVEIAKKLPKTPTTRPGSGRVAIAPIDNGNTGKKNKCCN

[2] = biological target: T2, Rab5A^S23N, dominant negative form, yeast two-hybrid bait (Dictyostelium discoideum) (UniProt Q86JP3); test: as above
T2 sequence: T1 sequence with S23N, L68Q

[3] = biological target: T3, Rab7B, wild type, yeast two-hybrid bait (Dictyostelium discoideum) (UniProt Q54K69); test: as above
T3 sequence: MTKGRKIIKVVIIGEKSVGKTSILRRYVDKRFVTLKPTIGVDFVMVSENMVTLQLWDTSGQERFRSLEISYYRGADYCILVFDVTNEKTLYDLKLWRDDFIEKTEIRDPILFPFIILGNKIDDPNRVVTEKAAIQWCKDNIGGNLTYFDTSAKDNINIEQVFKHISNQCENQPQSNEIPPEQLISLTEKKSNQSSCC

[4] = biological target: T4, Rab5A, wild type, yeast two-hybrid bait (Dictyostelium discoideum) (UniProt Q86JP3); test: as above
T4 sequence: T1 sequence with L68Q

[5] = biological target: T5, GST-Rab5A^Q68L (constitutively active form) (Dictyostelium discoideum) (UniProt Q86JP3); test: pull-down; glutathione sepharose beads with 15 μg GST-Rab protein incubated with lysate of Dictyostelium cells expressing the GFP fusion, 4 °C, 2 h; 20 mM Hepes pH 7.2, 100 mM NaCl, 0.3% CHAPS, 5 mM MgCl2, 1 mM DTT; anti-GFP blot; only the target purified
T5 sequence: T1 sequence

[6] = biological target: T6, GST-Rab5A^S23N (dominant negative form) (Dictyostelium discoideum) (UniProt Q86JP3); test: as above
T6 sequence: T1 sequence with S23N, L68Q

[7] = biological target: GST-Rab7A^Q67L (constitutively active form) (Dictyostelium discoideum) (UniProt P36411); test: as above
[8] = biological target: GST-Rab7A^T22N (dominant negative form) (Dictyostelium discoideum) (UniProt P36411); test: as above

binding [1]: no binding
binding [2]: no binding
binding [3]: binds
binding [4]: no binding
Substance: PripA-ΔPH, yeast two-hybrid prey (Dictyostelium discoideum) (domain or fragment)

binding [5]: no binding
binding [6]: no binding
Substance: PripA-ΔPH-GFP (Dictyostelium discoideum) (domain or fragment)

binding [7]: binds
binding [5]: no binding
binding [6]: no binding
binding [8]: no binding
Substance: PripA-GFP (from UniProt Q1ZXL0)

binding [5]: binds
Substance: GFP-TbcrA (Dictyostelium discoideum)
